# Assay results as given in the supplement of paper PMC8728848.
# The other results are listed elsewhere or left out.
# What was measured:
# Test in all cases: glycan array binding signal (z-score within array); higher = stronger binding
# Settings in all cases: glycan notation: IUPAC condensed, linker removed
# [1] = target: Gal3S6S(b1-4)GlcNAc
# How it was run: (§1)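 The Consortium for Functional Glycomics database supplied 3228 glycan arrays, of which those lacking an available protein sequence were dropped. The binding signal, a within-array Z-score, was averaged across arrays of the same protein sequence and across linkers. Negative scores can be read as non-binding.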
# [2] = target: Gal3S6S(b1-4)GlcNAc6S
# How it was run: as §1
# [3] = target: Gal4S(b1-4)GlcNAc
# How it was run: as §1
# [4] = target: Gal4S6S(b1-4)GlcNAc
# How it was run: as §1
# [5] = target: Gal6P(b1-4)GlcNAc
# How it was run: as §1
# [6] = target: Gal6S(b1-3)GlcNAc
# How it was run: as §1
# [7] = target: Gal6S(b1-3)GlcNAc6S
# How it was run: as §1
# [8] = target: Gal6S(b1-4)Glc
# How it was run: as §1
# [9] = target: Gal6S(b1-4)Glc6S
# How it was run: as §1
# [10] = target: Gal6S(b1-4)GlcNAc
# How it was run: as §1
# [11] = target: Gal6S(b1-4)GlcNAc6S
# How it was run: as §1
# [12] = target: GalNAc(a1-3)Gal
# How it was run: as §1
# [13] = target: GalNAc(a1-3)GalNAc
# How it was run: as §1
# [14] = target: GalNAc(a1-3)GalNAc(b1-3)Gal(a1-4)Gal(b1-4)Glc
# How it was run: as §1
# [15] = target: GalNAc(a1-3)GalNAc(b1-3)Gal(a1-4)Gal(b1-4)GlcNAc
# How it was run: as §1
# [16] = target: GalNAc(b1-3)Gal
# How it was run: as §1
# [17] = target: GalNAc(b1-3)Gal(a1-4)Gal(b1-4)GlcNAc
# How it was run: as §1
# [18] = target: GalNAc(b1-3)Gal(a1-4)Gal(b1-4)GlcNAc(b1-3)Gal(b1-4)Glc
# How it was run: as §1
# [19] = target: GalNAc(b1-3)Gal(a1-6)Gal(b1-4)Glc
# How it was run: as §1
# [20] = target: GalNAc(b1-3)GalNAc
# How it was run: as §1
# [21] = target: GalNAc(b1-3)GlcNAc
# How it was run: as §1
# [22] = target: GalNAc(b1-4)Gal(b1-4)Glc
# How it was run: as §1
# [23] = target: GalNAc(b1-4)GlcNAc
# How it was run: as §1
# [24] = target: GalNAc(b1-4)GlcNAc(b1-2)Man
# How it was run: as §1
# [25] = target: GalNAc(b1-4)GlcNAc(b1-2)Man(a1-3)[GalNAc(b1-4)GlcNAc(b1-2)Man(a1-6)]Man(b1-4)GlcNAc(b1-4)GlcNAc
# How it was run: as §1
# [26] = target: GalNAc(b1-4)GlcNAc(b1-3)GalNAc(b1-4)GlcNAc
# How it was run: as §1
# [27] = target: GalNAc(b1-4)GlcNAc6S
# How it was run: as §1
# [28] = target: GalNAc(b1-6)GalNAc
# How it was run: as §1
# [29] = target: GalNAc3S(b1-4)GlcNAc
# How it was run: as §1
# [30] = target: GalNAc3S(b1-4)GlcNAc3S
# How it was run: as §1
# [31] = target: GalNAc3S(b1-4)[Fuc(a1-3)]GlcNAc
# How it was run: as §1
# [32] = target: GalNAc4S6S(b1-4)GlcNAc
# How it was run: as §1
# [33] = target: GalNAc6S(b1-4)GlcNAc
# How it was run: as §1
# [34] = target: Glc(a1-4)Glc
# How it was run: as §1
# [35] = target: Glc(a1-4)Glc(a1-4)Glc(a1-4)Glc
# How it was run: as §1
# [36] = target: Glc(a1-6)Glc(a1-6)Glc
# How it was run: as §1
# [37] = target: Glc(a1-6)Glc(a1-6)Glc(a1-6)Glc
# How it was run: as §1
# [38] = target: Glc(b1-4)Glc
# How it was run: as §1
binder,measurement,setting,value
PX9961W-pdi-543-27-543 (Parabacteroides distasonis) (protein) EGNATTTSYFLNDQQAIDAIDGLYERFHQEGCYGRELFWEQGAACDIVWGRTRGYNSLATLAYTGDESPLRDVFSRMYSTMSRANWIIQELVKKEKGTTLTAVEKRSLGEAYFSRGWAHYLIAYRYGTDKQGVPFVRYEDFPDDYDNSIPPQQATVMDNYKLIIEDMDKAIAYLPIFESYDADNRGRAHQAAAVAFKAKTYAYWATWDATQWNNVIEMVNQLENNYNRDLAPTFAELFSSDLKDYWNAEYLWTIPSIGGALPGGTEFPGIILENKGWGKYNGWGQMKPSYDIYEEMAKDGKGNDRLVRSILEYNQEFPFFGETRKFWSTSDLEAGFMINKYMDAFKYSDPVGEGAVSANGDWPTVRVNFPIIRFAEMLLFRAEAYLMTGQADKATADINRIRLRSNLTPLTGTATMKDLYHERRCELAFEFTDHLFDLKRWNRSSNADIKTLADKELNAHPRIRRYEDRANPESAFTIIGYEDYTNKNAYQAHMMVFPYPSEEITKSNGQLKQNEGY,glycan array binding signal (z-score),[1],-0.311
same,glycan array binding signal (z-score),[2],0.158
same,glycan array binding signal (z-score),[3],-0.282
same,glycan array binding signal (z-score),[4],-0.35
same,glycan array binding signal (z-score),[5],-0.969
same,glycan array binding signal (z-score),[6],-1.13
same,glycan array binding signal (z-score),[7],0.139
same,glycan array binding signal (z-score),[8],-0.274
same,glycan array binding signal (z-score),[9],0.19
same,glycan array binding signal (z-score),[10],-0.756
same,glycan array binding signal (z-score),[11],0.176
same,glycan array binding signal (z-score),[12],-0.723
same,glycan array binding signal (z-score),[13],-0.183
same,glycan array binding signal (z-score),[14],-0.637
same,glycan array binding signal (z-score),[15],-0.389
same,glycan array binding signal (z-score),[16],-0.473
same,glycan array binding signal (z-score),[17],0.216
same,glycan array binding signal (z-score),[18],-0.656
same,glycan array binding signal (z-score),[19],-0.299
same,glycan array binding signal (z-score),[20],-0.487
same,glycan array binding signal (z-score),[21],-0.383
same,glycan array binding signal (z-score),[22],0.432
same,glycan array binding signal (z-score),[23],-0.443
same,glycan array binding signal (z-score),[24],-0.529
same,glycan array binding signal (z-score),[25],0.441
same,glycan array binding signal (z-score),[26],-0.156
same,glycan array binding signal (z-score),[27],0.192
same,glycan array binding signal (z-score),[28],-0.126
same,glycan array binding signal (z-score),[29],-0.888
same,glycan array binding signal (z-score),[30],-0.444
same,glycan array binding signal (z-score),[31],1.18
same,glycan array binding signal (z-score),[32],-0.291
same,glycan array binding signal (z-score),[33],1.01
same,glycan array binding signal (z-score),[34],0.007
same,glycan array binding signal (z-score),[35],-0.875
same,glycan array binding signal (z-score),[36],-0.416
same,glycan array binding signal (z-score),[37],-0.169
same,glycan array binding signal (z-score),[38],-0.067

# A second format for part of the listing above.
binder | measurement | setting | value
PX9961W-pdi-543-27-543 (Parabacteroides distasonis) (protein) EGNATTTSYFLNDQQAIDAIDGLYERFHQEGCYGRELFWEQGAACDIVWGRTRGYNSLATLAYTGDESPLRDVFSRMYSTMSRANWIIQELVKKEKGTTLTAVEKRSLGEAYFSRGWAHYLIAYRYGTDKQGVPFVRYEDFPDDYDNSIPPQQATVMDNYKLIIEDMDKAIAYLPIFESYDADNRGRAHQAAAVAFKAKTYAYWATWDATQWNNVIEMVNQLENNYNRDLAPTFAELFSSDLKDYWNAEYLWTIPSIGGALPGGTEFPGIILENKGWGKYNGWGQMKPSYDIYEEMAKDGKGNDRLVRSILEYNQEFPFFGETRKFWSTSDLEAGFMINKYMDAFKYSDPVGEGAVSANGDWPTVRVNFPIIRFAEMLLFRAEAYLMTGQADKATADINRIRLRSNLTPLTGTATMKDLYHERRCELAFEFTDHLFDLKRWNRSSNADIKTLADKELNAHPRIRRYEDRANPESAFTIIGYEDYTNKNAYQAHMMVFPYPSEEITKSNGQLKQNEGY | glycan array binding signal (z-score) | [10] | -0.756
same | glycan array binding signal (z-score) | [29] | -0.888
